Source: the supplement of paper PMC10849652
Some of the results follow.

Protein sequences, listed by entry. Tags and fused reporters are not part of them. Lines headed by an entry give the natural chain unless they say otherwise; changes in a name come on top.
UniProt O14949: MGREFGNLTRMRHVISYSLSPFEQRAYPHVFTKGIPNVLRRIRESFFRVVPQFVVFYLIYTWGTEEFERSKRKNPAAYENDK
UniProt Q8TCY9: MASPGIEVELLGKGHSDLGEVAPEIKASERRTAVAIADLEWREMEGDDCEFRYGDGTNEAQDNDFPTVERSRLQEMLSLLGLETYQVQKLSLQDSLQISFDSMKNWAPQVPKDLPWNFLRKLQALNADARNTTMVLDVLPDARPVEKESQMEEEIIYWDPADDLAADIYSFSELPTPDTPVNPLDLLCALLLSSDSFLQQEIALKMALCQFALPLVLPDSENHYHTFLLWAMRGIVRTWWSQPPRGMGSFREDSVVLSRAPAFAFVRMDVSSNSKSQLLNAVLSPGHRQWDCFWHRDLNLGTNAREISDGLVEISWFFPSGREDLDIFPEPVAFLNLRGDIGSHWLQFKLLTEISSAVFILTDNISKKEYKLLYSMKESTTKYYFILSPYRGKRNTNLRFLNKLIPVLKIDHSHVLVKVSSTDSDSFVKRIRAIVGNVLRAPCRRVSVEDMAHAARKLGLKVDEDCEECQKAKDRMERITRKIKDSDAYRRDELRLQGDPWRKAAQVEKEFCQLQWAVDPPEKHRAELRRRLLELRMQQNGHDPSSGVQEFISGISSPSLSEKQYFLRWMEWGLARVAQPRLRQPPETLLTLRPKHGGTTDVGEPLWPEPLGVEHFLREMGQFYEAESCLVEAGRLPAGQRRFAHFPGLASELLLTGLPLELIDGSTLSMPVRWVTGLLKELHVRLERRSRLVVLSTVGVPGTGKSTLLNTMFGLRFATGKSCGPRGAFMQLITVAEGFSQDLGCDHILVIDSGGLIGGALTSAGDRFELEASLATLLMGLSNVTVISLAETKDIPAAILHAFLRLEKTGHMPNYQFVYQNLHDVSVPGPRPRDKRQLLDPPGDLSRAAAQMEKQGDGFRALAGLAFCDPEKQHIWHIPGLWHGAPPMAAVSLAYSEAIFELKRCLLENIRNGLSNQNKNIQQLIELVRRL
UniProt P61960, whole entry, looked up: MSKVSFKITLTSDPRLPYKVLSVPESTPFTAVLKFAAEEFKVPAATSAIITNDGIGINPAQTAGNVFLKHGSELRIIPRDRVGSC
UniProt Q7Z3V4: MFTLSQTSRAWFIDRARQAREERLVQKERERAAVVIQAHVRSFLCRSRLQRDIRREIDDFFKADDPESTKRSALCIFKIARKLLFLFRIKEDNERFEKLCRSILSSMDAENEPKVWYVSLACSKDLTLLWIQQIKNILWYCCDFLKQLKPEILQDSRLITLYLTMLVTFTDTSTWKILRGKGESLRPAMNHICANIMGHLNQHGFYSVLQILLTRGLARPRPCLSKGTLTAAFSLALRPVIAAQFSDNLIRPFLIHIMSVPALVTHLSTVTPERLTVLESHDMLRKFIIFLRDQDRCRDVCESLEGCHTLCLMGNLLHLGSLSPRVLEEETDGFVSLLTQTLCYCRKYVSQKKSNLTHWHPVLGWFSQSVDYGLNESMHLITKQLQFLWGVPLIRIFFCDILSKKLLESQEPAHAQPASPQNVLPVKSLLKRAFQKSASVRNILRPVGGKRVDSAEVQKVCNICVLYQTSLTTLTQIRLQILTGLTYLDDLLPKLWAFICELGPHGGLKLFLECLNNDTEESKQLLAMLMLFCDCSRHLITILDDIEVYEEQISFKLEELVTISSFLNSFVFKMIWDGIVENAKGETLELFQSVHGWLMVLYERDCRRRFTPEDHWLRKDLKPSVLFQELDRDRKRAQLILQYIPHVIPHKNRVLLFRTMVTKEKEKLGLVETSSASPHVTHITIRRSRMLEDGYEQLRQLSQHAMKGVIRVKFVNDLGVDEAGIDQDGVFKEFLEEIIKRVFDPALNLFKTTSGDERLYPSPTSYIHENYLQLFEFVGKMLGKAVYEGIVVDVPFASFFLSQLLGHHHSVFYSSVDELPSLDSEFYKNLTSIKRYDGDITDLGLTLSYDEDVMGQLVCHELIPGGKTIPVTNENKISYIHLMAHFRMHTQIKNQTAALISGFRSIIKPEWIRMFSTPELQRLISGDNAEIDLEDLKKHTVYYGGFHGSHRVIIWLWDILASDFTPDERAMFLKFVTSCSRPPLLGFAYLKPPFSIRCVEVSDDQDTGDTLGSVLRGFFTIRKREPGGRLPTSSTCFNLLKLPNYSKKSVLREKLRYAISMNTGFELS
UniProt Q6ZU65, whole entry, looked up: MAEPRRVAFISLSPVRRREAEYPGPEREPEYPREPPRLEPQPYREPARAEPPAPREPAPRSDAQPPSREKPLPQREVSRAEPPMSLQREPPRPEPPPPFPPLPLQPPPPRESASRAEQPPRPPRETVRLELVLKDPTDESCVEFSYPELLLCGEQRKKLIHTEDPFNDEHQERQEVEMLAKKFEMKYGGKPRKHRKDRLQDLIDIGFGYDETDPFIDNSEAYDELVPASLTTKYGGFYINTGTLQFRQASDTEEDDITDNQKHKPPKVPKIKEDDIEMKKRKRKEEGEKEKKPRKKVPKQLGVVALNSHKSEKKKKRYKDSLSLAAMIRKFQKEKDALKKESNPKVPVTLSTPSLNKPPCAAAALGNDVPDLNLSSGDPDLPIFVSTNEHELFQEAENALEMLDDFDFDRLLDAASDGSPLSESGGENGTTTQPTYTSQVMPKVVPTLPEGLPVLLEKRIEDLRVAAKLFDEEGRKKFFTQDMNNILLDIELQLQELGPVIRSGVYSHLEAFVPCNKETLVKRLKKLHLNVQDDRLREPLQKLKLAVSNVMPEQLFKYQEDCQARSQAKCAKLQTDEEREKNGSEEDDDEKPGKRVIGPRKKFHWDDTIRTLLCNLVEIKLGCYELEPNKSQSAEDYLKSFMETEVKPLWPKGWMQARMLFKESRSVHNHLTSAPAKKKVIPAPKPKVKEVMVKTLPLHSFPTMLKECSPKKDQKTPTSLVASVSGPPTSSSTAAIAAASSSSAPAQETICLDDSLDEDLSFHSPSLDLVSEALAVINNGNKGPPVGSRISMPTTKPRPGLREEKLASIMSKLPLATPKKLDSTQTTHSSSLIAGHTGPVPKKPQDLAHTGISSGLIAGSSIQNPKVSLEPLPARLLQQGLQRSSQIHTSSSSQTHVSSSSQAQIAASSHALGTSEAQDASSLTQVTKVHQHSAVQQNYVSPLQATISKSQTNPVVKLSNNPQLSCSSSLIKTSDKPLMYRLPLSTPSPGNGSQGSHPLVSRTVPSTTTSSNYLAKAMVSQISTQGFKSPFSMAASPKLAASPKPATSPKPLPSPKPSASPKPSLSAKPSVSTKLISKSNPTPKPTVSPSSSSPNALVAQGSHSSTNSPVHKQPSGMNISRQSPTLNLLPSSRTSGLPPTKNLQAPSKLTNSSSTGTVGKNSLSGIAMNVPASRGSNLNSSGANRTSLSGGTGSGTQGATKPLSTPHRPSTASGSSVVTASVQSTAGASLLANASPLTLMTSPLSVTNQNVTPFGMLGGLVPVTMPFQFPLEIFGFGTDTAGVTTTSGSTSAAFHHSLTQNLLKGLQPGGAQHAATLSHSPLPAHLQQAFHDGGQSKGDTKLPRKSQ
UniProt Q15836, whole entry, looked up: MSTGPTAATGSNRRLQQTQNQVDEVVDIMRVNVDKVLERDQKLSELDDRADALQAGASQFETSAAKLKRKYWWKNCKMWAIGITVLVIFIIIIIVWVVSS
UniProt Q92900: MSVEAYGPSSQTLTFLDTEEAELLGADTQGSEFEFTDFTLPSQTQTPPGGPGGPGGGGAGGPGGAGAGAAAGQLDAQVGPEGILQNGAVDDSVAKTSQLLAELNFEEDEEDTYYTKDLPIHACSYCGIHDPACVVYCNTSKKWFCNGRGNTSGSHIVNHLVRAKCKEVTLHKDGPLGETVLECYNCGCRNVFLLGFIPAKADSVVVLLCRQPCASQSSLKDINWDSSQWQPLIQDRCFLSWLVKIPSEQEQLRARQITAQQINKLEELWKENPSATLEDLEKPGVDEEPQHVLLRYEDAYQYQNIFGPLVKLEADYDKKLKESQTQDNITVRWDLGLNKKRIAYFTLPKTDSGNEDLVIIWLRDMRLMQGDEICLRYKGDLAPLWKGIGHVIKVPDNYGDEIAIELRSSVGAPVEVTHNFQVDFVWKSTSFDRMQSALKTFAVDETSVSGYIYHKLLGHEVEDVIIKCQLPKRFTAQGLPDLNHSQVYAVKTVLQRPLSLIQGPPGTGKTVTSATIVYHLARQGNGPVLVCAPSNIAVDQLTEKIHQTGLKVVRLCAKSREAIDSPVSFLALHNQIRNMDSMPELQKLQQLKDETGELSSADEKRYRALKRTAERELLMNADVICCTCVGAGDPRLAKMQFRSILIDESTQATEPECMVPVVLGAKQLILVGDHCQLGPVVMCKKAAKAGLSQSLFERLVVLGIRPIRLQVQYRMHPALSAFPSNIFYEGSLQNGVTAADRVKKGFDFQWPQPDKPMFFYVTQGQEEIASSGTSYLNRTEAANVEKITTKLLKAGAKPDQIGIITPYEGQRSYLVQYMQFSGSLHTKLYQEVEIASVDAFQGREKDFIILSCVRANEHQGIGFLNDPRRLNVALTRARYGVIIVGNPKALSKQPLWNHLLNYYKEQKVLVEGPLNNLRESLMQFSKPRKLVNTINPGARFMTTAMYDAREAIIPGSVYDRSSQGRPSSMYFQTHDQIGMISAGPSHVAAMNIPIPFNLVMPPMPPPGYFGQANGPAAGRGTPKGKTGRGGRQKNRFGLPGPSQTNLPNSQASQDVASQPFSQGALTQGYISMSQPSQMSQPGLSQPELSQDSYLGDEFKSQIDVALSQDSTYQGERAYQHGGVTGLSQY
UniProt P17480: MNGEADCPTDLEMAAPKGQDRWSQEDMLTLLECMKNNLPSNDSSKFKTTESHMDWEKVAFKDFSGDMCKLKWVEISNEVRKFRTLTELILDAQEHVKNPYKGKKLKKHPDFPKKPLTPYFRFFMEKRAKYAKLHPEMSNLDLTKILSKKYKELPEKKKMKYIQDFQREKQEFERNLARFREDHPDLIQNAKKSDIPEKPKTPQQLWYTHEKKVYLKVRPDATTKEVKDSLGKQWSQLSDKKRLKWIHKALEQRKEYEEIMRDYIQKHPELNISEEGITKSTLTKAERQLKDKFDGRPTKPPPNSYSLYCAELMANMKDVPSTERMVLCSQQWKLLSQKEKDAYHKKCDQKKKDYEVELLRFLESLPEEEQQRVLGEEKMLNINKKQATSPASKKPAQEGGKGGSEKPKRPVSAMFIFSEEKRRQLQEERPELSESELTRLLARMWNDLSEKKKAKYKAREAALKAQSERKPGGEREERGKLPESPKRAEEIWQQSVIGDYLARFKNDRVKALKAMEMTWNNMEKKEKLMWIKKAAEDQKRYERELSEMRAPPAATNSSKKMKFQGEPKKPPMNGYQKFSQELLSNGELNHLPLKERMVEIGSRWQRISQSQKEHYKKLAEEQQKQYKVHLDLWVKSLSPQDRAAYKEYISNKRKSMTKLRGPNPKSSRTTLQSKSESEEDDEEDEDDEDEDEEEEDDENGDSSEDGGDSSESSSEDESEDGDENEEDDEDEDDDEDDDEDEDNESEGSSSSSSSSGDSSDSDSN
UniProt Q6UW78: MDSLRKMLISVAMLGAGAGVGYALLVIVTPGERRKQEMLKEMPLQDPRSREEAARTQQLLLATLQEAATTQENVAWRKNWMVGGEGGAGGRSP
UniProt Q04323: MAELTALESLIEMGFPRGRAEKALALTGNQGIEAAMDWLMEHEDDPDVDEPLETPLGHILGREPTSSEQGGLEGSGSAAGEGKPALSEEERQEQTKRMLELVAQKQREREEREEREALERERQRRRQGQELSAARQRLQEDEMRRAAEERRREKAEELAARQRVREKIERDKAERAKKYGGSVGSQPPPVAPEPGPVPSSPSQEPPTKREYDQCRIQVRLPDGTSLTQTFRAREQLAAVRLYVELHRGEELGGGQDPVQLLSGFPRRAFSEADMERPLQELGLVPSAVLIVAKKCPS

Experiments:
Test in all cases: log2 fold change, soluble protein after heating vs DMSO (PISA); higher = thermal stabilisation; K562 cells, 10 uM, 30 min; active = over 0.2 and 3.5 SD of the protein, either way, in both replicates (recomputed)
[1] = compound: C1=CC=C(C=C1)[C@H](COC2=CC3=C(C=C2)NC(=O)N3)NC(=O)C4=CC=CN(C4=O)CC5=CC(=C(C=C5)F)F
Procedure, shortened: (§1)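 Soluble protein was defined as the supernatant after 21,000xg for 90 min. It came from K562 cells at 2×10^6 cells/mL given 10 μM compound for 30 min, heated in aliquots for 3 min across 48°C-58°C, pooled, and extracted in PBS with 0.5% NP-40 at 4°C, and was quantified by TMTpro 16plex LC-MS/MS with equalised channel sums. Thermal stability against control samples, from duplicates, is reported as log2 fold change.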

[2] = compound: CC1=C(SC2=C1C(=N[C@H](C3=NN=C(N32)C)CC(=O)N)C4=CC=C(C=C4)Cl)C
Procedure, shortened: as §1

[3] = compound: CC1=C2C(=CC=C1)N=C(N(C2=O)C3=CC=CC=C3C)CN4C=NC5=C(N=CN=C54)N
Procedure, shortened: as §1

[4] = compound: Cc1sc2c(c1C)C(c1ccc(Cl)cc1)=N[C@@H](CC(=O)OC(C)(C)C)c1nnc(C)n1-2
Procedure, shortened: as §1

[5] = compound: c1ccc([C@@H]2C[C@H]2NC2CCNCC2)cc1
Procedure, shortened: as §1

Measured: log2 fold change

UCK2 (UniProt Q9BZX2)
inactive: [1] 0.011 | [2] 0.037 | [3] 0.022 | [4] -0.015 | [5] 0.023

UBL4A (UniProt P11441)
inactive: [1] 0.004 | [2] 0.036 | [3] 0.004 | [4] 0.007 | [5] -0.018

UQCRQ (UniProt O14949)
inactive: [1] 0.042 | [2] 0.05 | [3] -0.043 | [4] -0.003 | [5] -0.004

UBR2 (UniProt Q8IWV8)
inactive: [1] -0.16 | [2] 0.04 | [3] 0.009 | [4] -0.014 | [5] -0.28

UVRAG (UniProt Q9P2Y5)
inactive: [1] 0.012 | [2] 0.012 | [3] 0.165 | [4] -0.035 | [5] -0.034

UPF3B (UniProt Q9BZI7)
inactive: [1] 0.259 | [2] -0.211 | [3] -0.161 | [4] 0.363 | [5] -0.001

UBP1 (UniProt Q9NZI7)
inactive: [1] 0.063 | [2] 0.045 | [3] 0.047 | [4] 0.075 | [5] -0.02

VAT1 (UniProt Q99536)
inactive: [1] -0.021 | [2] 0.01 | [3] -0.022 | [4] -0.004 | [5] 0.017

UQCRH (UniProt P07919)
inactive: [1] -0.019 | [2] -0.033 | [3] 0.038 | [4] -0.019 | [5] 0.049

USP3 (UniProt Q9Y6I4)
inactive: [1] 0 | [2] 0.143 | [3] 0.036 | [4] -0.061 | [5] -0.025

USP16 (UniProt Q9Y5T5)
inactive: [1] -0.164 | [2] -0.245 | [3] -0.193 | [4] 0.102 | [5] 0.019

UBQLN1 (UniProt Q9UMX0)
inactive: [1] 0.01 | [2] -0.033 | [3] 0.055 | [4] -0.089 | [5] 0.021

URGCP (UniProt Q8TCY9)
inactive: [1] 0.068 | [2] 0.023 | [3] 0.054 | [4] 0.082 | [5] -0.07

VASP (UniProt P50552)
inactive: [1] -0.138 | [2] 0.047 | [3] 0.128 | [4] 0.051 | [5] -0.087

UGT8 (UniProt Q16880)
inactive: [1] 0.014 | [2] -0.008 | [3] -0.068 | [4] 0.298 | [5] -0.054

UHRF1BP1L (UniProt A0JNW5)
inactive: [1] 0.024 | [2] 0.099 | [3] 0.05 | [4] -0.027 | [5] -0.018

UCHL5 isoform 3 (UniProt Q9Y5K5)
inactive: [1] 0.021 | [2] 0.232 | [3] -0.123 | [4] 0.069 | [5] 0.167

VAC14 (UniProt Q08AM6)
inactive: [1] -0.011 | [2] 0.029 | [3] 0.013 | [4] -0.019 | [5] -0.035

UTP3 (UniProt Q9NQZ2)
inactive: [1] 0.049 | [2] -0.312 | [3] -0.041 | [4] 0.042 | [5] -0.007

UFM1 (UniProt P61960)
inactive: [1] -0.019 | [2] 0.363 | [3] 0.049 | [4] -0.164 | [5] 0.083

USF3 (UniProt Q68DE3)
inactive: [1] -0.015 | [3] 0.185

USP20 (UniProt Q9Y2K6)
inactive: [1] 0.12 | [2] -0.167 | [3] 0.052 | [5] -0.022

UNC13A (UniProt Q9UPW8)
inactive: [1] -0.032 | [4] -0.021

UBQLN3 (UniProt Q9H347)
inactive: [2] -0.042 | [3] 0.173 | [4] 0.049 | [5] 0.128

USP6NL isoform 2 (UniProt Q92738)
inactive: [2] 0.121 | [3] 0.158 | [4] 0.029 | [5] 0.092

USB1 (UniProt Q9BQ65)
inactive: [2] 0.256 | [3] -0.159 | [4] -0.035 | [5] 0

UBR1 (UniProt Q8IWV7)
inactive: [1] -0.004 | [2] -0.824 | [5] -0.059

UPRT (UniProt Q96BW1)
inactive: [1] -0.076 | [2] -0.064 | [3] 0.061 | [5] -0.145

UBE3B (UniProt Q7Z3V4)
inactive: [1] -0.081 | [2] -0.147 | [4] -0.214 | [5] 0.172

UNC5B (UniProt Q8IZJ1)
inactive: [3] -0.076 | [4] -0.107

UPP1 (UniProt Q16831)
inactive: [4] 0.182

VAV1 (UniProt P15498)
inactive: [2] 0.133 | [3] 0.095 | [4] 0.072 | [5] -0.086

UBN2 (UniProt Q6ZU65)
inactive: [2] 0.037 | [3] 0.2 | [5] 0.015

VAMP3 (UniProt Q15836)
inactive: [1] 0.077 | [2] -0.286 | [4] 0.019 | [5] 0

USP46 (UniProt P62068)
inactive: [3] 0.077

UPF1 (UniProt Q92900)
inactive: [1] -0.006 | [2] 0.032 | [3] 0.032 | [4] 0.002 | [5] -0.017

URI1 isoform 4 (UniProt O94763)
inactive: [1] 0.195 | [2] -0.279 | [3] -0.074 | [4] 0.004 | [5] 0.112

USP33 (UniProt Q8TEY7)
inactive: [3] 0.079 | [4] -0.067

ULBP2 (UniProt Q9BZM5)
inactive: [2] 0.002 | [4] -0.139 | [5] 0.082

USF1 (UniProt P22415)
inactive: [1] -0.04 | [3] 0.155

UBTF (UniProt P17480)
inactive: [1] -0.206 | [2] 0.036 | [5] -0.023

UNC93B1 (UniProt Q9H1C4)
inactive: [1] 0.055 | [2] -0.026 | [5] 0.109

Quoted from the entries so far (4 entries):
UPF1 (UniProt Q92900)
inactive: [1] -0.006 | [2] 0.032 | [3] 0.032 | [4] 0.002 | [5] -0.017

URI1 isoform 4 (UniProt O94763)
inactive: [1] 0.195 | [2] -0.279 | [3] -0.074 | [4] 0.004 | [5] 0.112

USP33 (UniProt Q8TEY7)
inactive: [3] 0.079 | [4] -0.067

ULBP2 (UniProt Q9BZM5)
inactive: [2] 0.002 | [4] -0.139 | [5] 0.082

Next part.

UFL1 (UniProt O94874)
inactive: [1] -0.072 | [2] 0.012 | [3] 0.039 | [4] 0.001 | [5] -0.066

URB2 (UniProt Q14146)
inactive: [1] -0.017 | [2] -0.096 | [5] -0.099

USP27X (UniProt A6NNY8)
inactive: [2] 0.134 | [4] -0.25 | [5] 0.103

UTP20 (UniProt O75691)
inactive: [4] 0.034

URM1 isoform 2 (UniProt Q9BTM9)
inactive: [1] -0.005 | [3] 0.093 | [4] 0.082

UQCC3 (UniProt Q6UW78)
inactive: [1] -0.453 | [2] -0.072 | [5] 0.238

ULBP1 (UniProt Q9BZM6)
inactive: [2] 0.014 | [3] -0.001 | [4] -0.036 | [5] -0.038

VAMP7 (UniProt P51809)
inactive: [1] 0.007 | [2] 0.044 | [3] 0.077 | [4] -0.047 | [5] 0.015

UBXN1 (UniProt Q04323)
inactive: [1] -0.004 | [2] 0.042 | [3] 0.084 | [4] 0.004 | [5] 0.002

UHRF1 isoform 2 (UniProt Q96T88)
inactive: [4] 0.008

VASN (UniProt Q6EMK4)
inactive: [1] 0.403 | [3] -0.001

2 records picked at random from the list so far:
UPF1 (UniProt Q92900)
inactive: [1] -0.006 | [2] 0.032 | [3] 0.032 | [4] 0.002 | [5] -0.017

VAC14 (UniProt Q08AM6)
inactive: [1] -0.011 | [2] 0.029 | [3] 0.013 | [4] -0.019 | [5] -0.035

Remaining list, next part.

USP54 (UniProt Q70EL1)
inactive: [1] -0.109 | [3] 0.013 | [4] 0.056

USP11 (UniProt P51784)
inactive: [2] 0.024 | [5] -0.025

USP32 (UniProt Q8NFA0)
inactive: [2] -0.19 | [4] -0.001 | [5] -0.046

UTP23 (UniProt Q9BRU9)
inactive: [2] -0.193 | [5] -0.131

USP12 (UniProt O75317)
inactive: [2] 0.02 | [3] -0.032 | [4] -0.258 | [5] 0.012

UMAD1 (UniProt C9J7I0)
inactive: [1] 0.133 | [2] 0.004 | [4] 0.064 | [5] 0.087
